Results published in PubChem BioAssay AID2701 (National Center for Advancing Translational Sciences (NCATS), 2010).
Inconclusive means that the source gave no clear call. Such entries were picked first, then a sample of the others. Potencies beside an inconclusive call are fits to weak or partial responses and may not hold up. Calls of active or inactive are those of the source. Calls come from the whole dose curve; as a rule, active = well fitted inhibition curve with a large enough effect; inconclusive = small, poorly fitted or top-dose-only effect, or another doubt; inactive = no such curve, though single readings can be large or run the other way.

Protein sequences, listed by entry. Tags and fused reporters are not part of them. Lines headed by an entry give the natural chain unless they say otherwise; changes in a name come on top.
UniProt Q9F4F7: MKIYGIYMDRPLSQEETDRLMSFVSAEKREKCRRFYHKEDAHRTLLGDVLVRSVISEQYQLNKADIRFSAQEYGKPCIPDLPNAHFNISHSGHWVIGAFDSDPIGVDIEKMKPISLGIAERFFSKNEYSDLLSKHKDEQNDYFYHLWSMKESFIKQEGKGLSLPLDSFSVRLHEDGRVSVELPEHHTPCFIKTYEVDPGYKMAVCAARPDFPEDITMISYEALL

molecular target: 4'-phosphopantetheinyl transferase ffp (Bacillus subtilis) (UniProt Q9F4F7); assay: Confirmation qHTS Assay for Inhibitors of Bacillus subtilis Sfp phosphopantetheinyl transferase (PPTase); settings: Sfp PPTase enzymatic assay, qHTS titration; series mostly up to 114 µM; activity change, negative = inhibition: at the top concentration
Excerpt: The covalent attachment of a phosphopantetheinyl (4'-PP) arm to a variety of synthases and other proteins is a key posttranslational protein modification. The 4'-PP is installed on the proteins post-translationally from coenzyme A (CoA) on a conserved serine residue by action of phosphopantetheinyl transferase (PPTase) enzymes. Phosphopantetheinylation is essential for synthase activity, and removal of the PPTase gene precludes natural product synthesis in microorganisms, or in the case of fatty acid biosynthesis, renders the organism unviable. PPTase enzymes belong to a distinct structural superfamily. Within bacteria, these enzymes are grouped into two classes based upon primary structure, the AcpS-Type and Sfp-Type PPTases.
Sfp-type PPTases, corresponding to an activator of surfactin production in Bacillus subtilis, are responsible for modifying type I polyketide and nonribosomal peptide synthases of prokaryotes. Sfp-type PPTases are responsible for the activation of a variety of pathogen-associated virulence factors. Among these compounds are toxins such as mycolactone from Mycobacterium ulcerans, siderophores such as vibriobactin from Vibrio cholerae or mycobactin from Mycobacterium tuberculosis, as well as the mycolic acids which form the waxy cell wall of Mycobacteria. The biosyntheses of these natural products are considered attractive targets for drug design.
In search of small molecule Sfp-PPTase inhibitors, a fluorescence quenching assay was developed for detection of Bacillus subtilis Sfp-PPTase enzymatic activity in a miniaturized high-throughput format. The consensus ybbr acceptor peptide […] was N-terminally labeled with Black Hole Quencher-2 (BHQ-2) and used in combination with rhodamine-labeled coenzyme A as a co-substrate.
Inhibition of Sfp-PPTase was detected by recording the fluorescence intensity change over a 30-minute reaction period at a 525 nm excitation and 598 nm emission. Reagents were supplied by Michael Burkart and Timothy Foley, University of California at San Diego.
Assay Submitter: Michael Burkart, University of California, San Diego
Screening Center PI: Austin, C.P.
Screening Center: NIH Chemical Genomics Center [NCGC]
Assay Buffer: 50 mM Hepes-Na pH 7.6, 10 mM MgCl2, 0.01% Nonidet P-40, and 0.01% BSA.
3 uL of Sfp-PPTase enzyme (final concentration 15 nM) and 1 uL of substrate mixture (final concentration for rhodamine-CoA and BHQ-2-YbbR 5 uM and 12.5 uM, respectively) dispensed in columns 1, 2, 5 - 48. Columns 1 and 2 used to generate neutral control (uninhibited reaction)
Three uL of reagents, consisting of buffer (in columns 3 and 4 as negative control) and Sfp-PPTase (in columns 1, 2, 5 - 48) were dispensed into 1,536-well Greiner black solid bottom plate. Compounds (23 nL) were transferred via Kalypsys pintool equipped with 1,536-pin array. The plate was incubated for 15 min at room temperature, followed by the addition of 1 uL substrate to start the reaction. The plate was then centrifuged at 1000 rpm for 15 seconds, and the fluorescence intensity recorded on a ViewLux High-throughput CCD imager (Perkin-Elmer) using standard BODIPY optics (525 nm excitation and 598 nm emission). The plate was then incubated for 30 minutes, and a second read on the ViewLux was performed. The fluorescence intensity difference over the 30-minute period was used to calculate the respective reaction rate for each well.
Potency is the fitted concentration of half-maximal effect.

Row | SMILES | Potency | activity change, negative = inhibition
1 | C[C@H](N)[C@H](O)c1ccc(O)c(O)c1 | inconclusive: 17.9 µM [inhibitor, partial curve] | –
2 | CN(C)C1C(=O)C(C(N)=O)C(=O)C2(O)C(=O)C3C(=O)c4c(O)cccc4C(C)(O)C3C(O)C12 (configuration not stated) | inconclusive: 0.0118 µM [inhibitor, full curve, poor fit] | –
3 | Clc1ccc(COC(Cn2ccnc2)c2ccc(Cl)cc2Cl)c(Cl)c1 (configuration not stated) | inconclusive: 59.1 µM [inhibitor, single point] | –
4 | CCOC(=O)[C@]1(C#N)[C@@H]2C=CC(C(C)=O)=CN2[C@@H](C(N)=O)[C@@H]1c1ccsc1 | inconclusive: 59.1 µM [inhibitor, single point] | –
5 | Clc1ccc(COC(Cn2ccnc2)c2ccc(Cl)cc2Cl)cc1 (configuration not stated) | inconclusive: 83.5 µM [inhibitor, single point] | –
6 | Nc1ccnn1C1CCNCC1 | inconclusive: 46.9 µM [inhibitor, partial curve, poor fit] | –
7 | CC[C@@H]1/C=C/C=C/C[C@H](C)[C@@H](O)[C@](C)(O)C(=O)[C@H](C)[C@@H](O)[C@H](C)C(=O)[C@H](C)[C@@H](O)[C@H](C)/C=C/C(=O)O[C@H]2[C@@H](C)[C@@H](CC1)O[C@@]1(CC[C@@H](C)[C@@H](C[C@H](C)O)O1)[C@@H]2C | – | inactive: 0.408%

An excerpt of these results, tab-delimited:
Row	SMILES	Potency	activity change, negative = inhibition
2	CN(C)C1C(=O)C(C(N)=O)C(=O)C2(O)C(=O)C3C(=O)c4c(O)cccc4C(C)(O)C3C(O)C12 (configuration not stated)	inconclusive: 0.0118 µM [inhibitor, full curve, poor fit]	–
3	Clc1ccc(COC(Cn2ccnc2)c2ccc(Cl)cc2Cl)c(Cl)c1 (configuration not stated)	inconclusive: 59.1 µM [inhibitor, single point]	–
